# Laboratory results as given in patent publication US20210403864A1, “METHODS AND COMPOSITIONS FOR TREATING ACTIVATED G-ALPHA Q MUTANT CANCERS OR MELANOCYTIC MALIGNANCIES” (Memorial Sloan Kettering Cancer Center, priority 2018, published 2021).
# At least one structure is not confirmed: it was looked up by name or label, or the drawing left a doubt.
# Columns and labels:
# Assay in all cases: Colony formation assay
# Format in all cases: cell-based, human
# Conditions in all cases: 1000 cells per well, until colonies visible in vehicle plates
# [1] = tested on: Gq-mutant OMIM1.3 uveal melanoma cells
# Procedure: (§1) To evaluate the effect of YM-254890 and trametinib in vitro, colony formation assays were performed. 1000 cells per well of the following cell lines were plated: (1) BRAF-mutant A375 cutaneous melanoma cells, (2) Gq-mutant Mel202 cells, and (3) Gq-mutant OMIM1.3 uveal melanoma cells. The cells were then treated with a negative vehicle control, YM-254890, trametinib, or both. Cells were allowed to grow until visible colonies formed in the vehicle-treated plates.
# [2] = tested on: BRAF-mutant A375 cutaneous melanoma cells
# Procedure: as §1
# Gq-mutant Mel202 cells = tested on: Gq-mutant Mel202 cells
# Procedure: as §1
smiles,measurement,setting,value
CC(=O)Nc1cccc(-n2c(=O)n(C3CC3)c(=O)c3c(Nc4ccc(I)cc4F)n(C)c(=O)c(C)c32)c1 [trametinib],colony formation,[1],moderate sensitivity
same,colony formation,[2],sensitive
same,colony formation,Gq-mutant Mel202 cells,moderate sensitivity
